± gives the standard deviation. The list shows a part of the results, in another mix than the full data. The uncertainty is large for many entries.
System: EfPiwi piRISC loaded with piRNA #1 (26 nt)
Assay: pre-steady-state target cleavage rate (min^-1); guide: piRNA #1 5'p-UGAGGUAGUAGGUUGUAUAGUAUCCA; MIWI and MILI are mouse PIWI proteins and EfPiwi is from a freshwater sponge; tags in brackets are library labels; higher = faster piRNA-guided slicing of the target
Settings: auxiliary factor: 500 nM Ephydatia muelleri Gtsf1
Procedure, shortened: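 Active affinity-purified piRISC (1 nM) loaded with one synthetic guide was mixed with a transcribed, DNA-blocked target RNA library (0.1 nM), with or without 500 nM GTSF1 partner protein, in HEPES–potassium acetate buffer at 33 °C for 0–8 or 0–960 min. Uncleaved targets were sequenced, normalised to depth and to weakly complementary targets, and pooled across three trials, with k3 capped at 0.0001 min^-1. The pre-steady-state cleavage rate was determined with a burst-and-steady-state fit.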

Row | Sequence | pre-steady-state target cleavage rate
1 | GGAGACCUAUCUAUACAACCUAGAACCUCA | 0.000228 ± 0.017
2 | GGAGAGGAUACUAUUCUACCUACUACCUCA | 0.00283 ± 0.0038
3 | GGAGACCUAUGUAUUGAACCUACUACCUCA | 0.0012 ± 0.0062
4 | GGAGACCUAUCUAUAGUACCUACUACCUCA | 0.00138 ± 0.0051
5 | GGAGACGAUAGUAUACAUCCUACUACCUCA | 0.00323 ± 0.0026
6 | GGAGUGGAUACUAUACAACCUACUACCUCG [g2:g26:cont:t1G] | 0.0718 ± 0.025
7 | GGAGACCUAUCUAUACACCCUACUACCUCA | 0.00728 ± 0.0037
8 | GGAGACCUAUGAUAUGUACCUUCUACCUGA | < 0.0001
9 | GGAGACCUUAGUAUACAACCUACUACCUGA | 0.00359 ± 0.0036
10 | GGAGACCUAACUAUACUACCUACUAGCUCA | 0.0011 ± 0.007
11 | GGAGACCAUCCUAUACAACCUACUACCUCA | 0.01 ± 0.006
12 | GGAGACCUAUGAUAUGUACCUACUACCUUA | 0.000197 ± 0.014
13 | GGAGACCUAUCUAUACAACCUAGAUGGAGA [g9:g20:cont:t1A] | 0.00107 ± 0.0043
14 | GGAGACCUAUCUAUACAACCUACUACCUUA | 0.0739 ± 0.027
15 | GGAGACCUAUCUAUACAACCUACUUCCUCA | 0.00328 ± 0.0036
16 | GGAGACCUAACUAUACAACCAUGAUGGAGA [g11:g21:cont:t1A] | 0.00117 ± 0.0073
17 | GGAGACCUAACUAUUCAACCUAGUACCUCA | 0.00265 ± 0.0045
18 | GGAGACCUAACUAUACAAUCUACUACCUCA | 0.00373 ± 0.0046
19 | GGAGAGGAUACUAAUGAACCUACUACCUCA | 0.000358 ± 0.011
20 | GGAGACCUAACUAUACAACCUACUACAUCA | 0.0146 ± 0.0083

Row | Sequence | pre-steady-state target cleavage rate
21 | GGAGACGAAACUUUACAACCUACUACCUCA | 0.0147 ± 0.0064
22 | GGAGACCAUAGUAUACAACCUACUACGUCA | 0.00463 ± 0.0028
23 | GGAGACCUUACUUUACAACCUACUACGUCA | 0.00198 ± 0.004
24 | GGAGUGGAAUCUAUACAACCUACUACCUCA | 0.00913 ± 0.0055
25 | GGAGUGGAUACUAUACAACCUUCUACCUCA | 0.0116 ± 0.0048
26 | GGAGACGUUUCUAUACAACCUACUACCUCA | 0.0117 ± 0.0062
27 | GGAGACCUAUCUAUACAACCUACUGACCUCA | 0.00107 ± 0.0085
28 | GGAGACCUUUCUAUACAACCUACAACCUCA | 0.0025 ± 0.0028
29 | GGAGUGGAUACUAUACAACCUACUAACUCA | 0.00991 ± 0.0043
30 | GGAGACCUAUCUAAACAACCUACUACGUCA | 0.000917 ± 0.0048
31 | GGAGACCUAUCUAAACAAGCUACUACCUCA | 0.00043 ± 0.0068
32 | GGAGACCAUUCUAUACAACCAACUACCUCA | 0.00335 ± 0.0039
33 | GGAGACCUAACUAUACAACCCACUACCUCA | 0.00404 ± 0.0036
34 | GGAGACCAUACUAUACAACGUACAACCUCA | 0.00296 ± 0.0025
35 | GGAGACCUAUCUAUACAUCCUUCUACCUCA | 0.00237 ± 0.0042
36 | GGAGAGCAUACUAUACAACCUACUAGCUCA | 0.00355 ± 0.0022
37 | GGAGACCUUACUAUACAAGCAACUACCUCA | 0.00336 ± 0.0042
38 | GGAGACCUAACUAUACAUACCUACUACCUCA | 0.000386 ± 0.018
39 | GGAGUCGAUACUAUAGAACCUACUACCUCA | 0.00147 ± 0.0017
40 | GGAGACCAUACUUUACAACCUUCUACCUCA | 0.00292 ± 0.0039

From the supplement of paper PMC10338343
